Data: US20250163183A1
No constants are given. Whether binding was seen depends on the method and setting. Some results given as binding are weak or reduced against the parent protein; the word gives no strength.

Sequences of proteins named here, by UniProt entry; tags and fusion partners are left off. A change or cut given only in a name is not applied to a line headed by its entry.
UniProt P04070: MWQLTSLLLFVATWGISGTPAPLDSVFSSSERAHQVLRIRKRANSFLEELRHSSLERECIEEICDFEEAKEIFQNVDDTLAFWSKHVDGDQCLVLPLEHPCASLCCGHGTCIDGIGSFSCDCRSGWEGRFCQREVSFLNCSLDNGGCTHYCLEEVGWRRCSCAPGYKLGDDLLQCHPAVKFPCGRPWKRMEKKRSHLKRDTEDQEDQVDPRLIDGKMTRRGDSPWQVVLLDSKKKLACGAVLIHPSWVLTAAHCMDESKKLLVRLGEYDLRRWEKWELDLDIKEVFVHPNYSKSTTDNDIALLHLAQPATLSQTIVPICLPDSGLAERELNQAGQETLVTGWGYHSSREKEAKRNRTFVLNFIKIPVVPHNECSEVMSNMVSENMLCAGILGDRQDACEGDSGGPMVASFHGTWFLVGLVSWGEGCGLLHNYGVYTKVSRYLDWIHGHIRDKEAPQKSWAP

B1: SR16983-R3-P2-E09 (VHH)
VHH: QLQLVESGGGLVQAGGSLRLSCAASGTTFSFNYMGWYRQAPGNQRDLVARISSGGSTNYADSVKGRFTISADNAKNTVYLQMNSLKPEDTARYTCFWNGYTNKWGQGTQVTVSS
B2: SR16983-R3-P2-D12 (VHH)
VHH: QLQLVESGGGLVQAGGSLRLSCAASGSTFNFNIMGWYRQVPGKQRELVAVINSGGSADYTEDVKGRFTISRDNAKSIMYLQMNSLKPEDTAVYYCNAKKVEPTLFTTTYWGQGTQVTVSS
B3: SR16983-R2-P2-G11 (VHH)
VHH: QVQLVESGGGLVQAGGSLRLSCAASGTTFSFNYMGWYRQAPGNQRDLVARISSGGITNYADSVKGRFTISGDNAKNVVYLQMNSLKPEDTARYYCFYNGHLNKWGQGTQVTVSS
B4: SR16983-R3-P2-B02 (VHH)
VHH: QLQLVESGGGLVQAGGSLRLSCAASGTTFSFVYMGWYRQAPGNQRDLVARISSDGSTNYADSVKGRFTISGDNAKNIVYLQMNSLKPEDTARYYCFYNGHLNKWGQGTQVTVSS
B5: SR16983-R3-P4-F06 (VHH)
VHH: QLQLVESGGGLVQAGGSLRLSCEASRTTFSFNYMGWYRQAPGNQRDLVARISSGGITNYADSVKGRFTISGDNAKNTVYLQMNSLKPEDTARYYCFYNGHLNKWGQGTQVTVSS
B6: SR16983-R3-P3-G03 (VHH)
VHH: QVQLVESGGGLVQAGGSLRLSCAASGRTVGSYVMGWFRQAPGKERELLAAFSRSTGNTVYADSVKGRFTISRDDAKNTLYLQMNSLKPEDTAVYYCAARASINYNYANWPYWGQGTQVTVSS
B7: SR16983-R2-P4-F09 (VHH)
VHH: QVQLVESGGGLVQAGGSLRLSCAASGFTFDDYAIGWFRQAPGKEREGIACRSTDGSTYYADSVEGRFTISSDNAKRTVYLQMNSLKPGDTAVYYCAADLMGVHRRCSGYLNLEYGMDYWAKGTLVTVSS
B8: SR16983-R3P2F4 (VHH)
VHH: QLQLVESGGGLVQAGGSLRLSCAASGRIFGTYVMGWFRQAPGKEREFVAAVSRSTGSTYADSVKGRFTISRDDAKNMLYLQMNNLRPEDTAIYYCATRASINYNYANWPYWGQGTQVTVSS
B9: SR16983-R2-P2-E10 (VHH)
VHH: QLQLVESGGGLVQPGGSLRLSCVLSGSTFGRNVITWYRQPPGKQREFIAMITTSGSTRYADSVKGRFTMSRDTAKNTAFLQMSNLKLEDTAVYYCWTAIAGQGEYWGQGTQVTVSS
B10: SR16983-R2-P4-H08 (VHH)
VHH: QLQLVESGGGLMQAGGSLRLSCAASGTTSSLNLMGWYRQAPGKKRESVAHMTSDGRTDYTDSVKGRFTISRDNSKNTVYLQMNNLKPEDTAVYYCYANPFLGSWSNYWGQGTQVTVSS
B11: SR16983-R3-P5-D01 (VHH)
VHH: QLQLVESGGGLVQAGGSLRLSCAASGTTFDMNSIGWYRQAPGKQRELVATISIGGSTNYADSVKGRFTISRGNAKNTVYMQMNSLKPEDTAVYYCNAERIWPNRRTFWGQGTQVTVSS
B12: SR16983-R2-P3-F07 (VHH)
VHH: QLQLVESGGGLVQAGGSLRLSCAASGTTFDMNSMGWYRQAPGFKRDLVATISIGGDTNYTDSVKGRFTISRDNAKNTVYMQMNSLKPEDTAVYYCNAERIWPNRRSFWGQGTQVTVSS
B13: SR16983-R3-P4-A07 (VHH)
VHH: QVQLVESGGGLVQAGGSLRLSCAASGRTFVGSYVMGWFRQAPGKEREFVAASSRSTGNTVYLDSVKGRFTVSRDDAKNTLYLQMNSLKPEDTAVYYCATRASINYNYAAWPYWGQGTQVTVSS
B14: SR16983-R3P2H01 (VHH)
VHH: QLQLVQSGGGLVQAGGSLRLSCTASGSTVRVTAGGWYRQTPGNERELVADIDNGGSTTYADSVKGRFTISRDNAKNAVDLQMNSLKPEDTAVYRCFVIAIPDSAPRPRAYWGQGTEVTVSS
B15: SR16983-R3-P3-F04 (VHH)
VHH: QLQLVESGGGLVQAGGSLRLSCAASGRTVGSYAMGWFRQAPGKEREFLAASSRSTGNTVYADSVKGRFTISRDDAKNTLYLQMNSLKPEDTAVYYCAARASINYNYANWPYWGQGTQVTVSS
B16: SR16983-R2-P4-F01 (VHH)
VHH: QLQLVESGGGLVQAGGSLRLSCAASGRTFVGSYVMGWFRQAPGKAREFVAASSRSTGNTVYLDAVKGRFTVSRDDAKNTLYLQMSSLKPEDTAVYYCATRASINYNYANWPYWGQGTQVTVSS
B17: SR16983-R4-P1-C12 (VHH)
VHH: QLQLVESGGGLVQAGGSLRLSCAASGSTFSINVFAWYRQGSGEQRELVAFIGRSGTARYGDSVKGRFSISRDNAKKTVYLQMDSLRPEDTAVYYCNLGDYWGQGTQVTVSS
B18: SR16983-R3-P2-B05 (VHH)
VHH: QLQLVESGGGLVQAGGSLRLSCAASGTTSSLNLMGWYRQAPGKKRESVAHMTSDGRTDYVDSVKGRFTISRDNSKNTVYLQMNNLKPEDTAVYICYANPFLGSWSNYWGQGTQVTVSS
B19: SR16983-R3-P4-G09 (VHH)
VHH: QLQLVESGGGLVQAGGSLRLSCAASGSTVRVTAGGWYRQTPGNERELVADIDNGGSTTYADSVKGRFTISRDNAKNAVDLQMNSLKPEDTAVYRCFVIAIPDSAPRPRSYWGQGTEVTVSS
B20: SR16983-R2-P4-C02 (VHH)
VHH: QVQLVESGGGLVQAGGSLRLSCTTSGSTFSITAGGWYRQAPGKQRELVADIANDGSTTSADSVKGRFTISRDNAKNTVELQMSSLKLEDTAVYYCFVVGKSDSMPRARAYWGQGTQVTVSS
B21: SR16983-R2-P4-F03 (VHH)
VHH: QVQLVESGGGLVQAGGSLRLSCAASGRTFGSYVMGWFRQAPGKEREFLAAFSRSTGSTVYADSVKGRFTISKDDAKNTLYLQMNSLKPEDTAVYYCATRASINYNYANWPYWGQGTQVTVSS
B22: SR16983-R2-P3-E06 (VHH)
VHH: QLQLVESGGGLVQAGGSLRLSCVASGRTVGSYAVAWFRQAPGKERELLAASSRSTGNTVYADSVKGRFTIARDDAKNTLYLQMNSLKPEDTAVYYCAARASINYNYANWPYWGQGTQVTVSS
B23: SR16983-R4-P1-C10 (VHH)
VHH: QVQLVESGGGLVQAGGSLRLSCVAYGSTFSINVFAWYRQAPGEQRELGELVAFIGRSGTTKYGDSVKGRFTISRDNAKNTVYLQMDSLRPEDTAVYYCNLGDYWGQGTQVTVSS
B24: SR16983-R2P1C12 (VHH)
VHH: QVQLVESGGGLVQPGGSLRLSCAASGFTFSMKWMYWVRQGPGKGLEWVSTIDTSGSSTYYADSVKGRFTISRDNSKNTVYLQMNSLESADTAVYYCARSAGGLFRGRGTQVTVSS
B25: SR16983-R2-P4-G08 (VHH)
VHH: EVQLVESGGGLVQAGGSLRLSCAASGLTSSTYAMAWFRQAPGKEREFVSVIDWRGSTTYTNSVKGRFTISRDNGKNTVYLQMNSLQPEDTALYYCAARASPGYVGSLYPYWGRGTQVTVSS
B26: SR16983-R3P2H09 (VHH)
VHH: EVQLVESGGGLVQAGGSLRVSCTTSGSTFSITAGGWYRQTPGKERELVADIANDGSTTYANSVKGRFTISRDNAKNTVELQMSSLKLEDTAAYRCFVVGISDSMPRPRAYWGQGTQVTVSS
B27: SR16983-R3P2D02 (VHH)
VHH: QLQLVESGGGLVQPGGSLRLSCAASGFTLDGYAIGWFRQAPGKEREGVSSIATSDGSTYYADSVKGRFTISGDDAKNTVYLHMNSLKPEDTAVYYCARGGSLVLRPKYYDYWGQGTQVTVSS
B28: SR16983-R2-P2-D05 (VHH)
VHH: QVQLVESGGGLVQPGGSLTLSCAASGTIESINDMGWYRQAPGKQRELVAAITSGGSTNYADSVKGRFTISRDNAKNTVYLQMNSLKPEDTAVYYCNAEVKRHYYYDSAGHRYWGQGTQVTVSS
B29: SR16983-R2-P4-E08 (VHH)
VHH: QLQLVESGGGLVQAGGSLTLSCAASGFTLDDYAIGWFRQAPGKEREGVSCIATSDGSTYYADSVKGRFTISSDNAKNTVYLQMNSLKPEDTAVYYCARGGLLLPKPELFDFRGQGTQVTVSP
B30: SR16983-R3-P3-E02 (VHH)
VHH: QLQLVESGGGLVQAGGSLRLSCVLSGNTFGRNVITWYRQPPGKQREFIAMITSSGSTRYADSVKGRFTMSRDTAKNTAFLQMSSLKVEDTAVYYCWTAIAGQGEYWGQGTQVTVSS
B31: SR16983-R2-P2-D08 (VHH)
VHH: QLQLVESGGGLVQAGDSLRLSCALSGLAASTYAMAWFRQAPGKEREFVSVIDWKGDSTTANSVKGRFTISRDHGKNTVYLQMNSLQPEDTALYYCAARGSPGYVAKLYAHWGRGTQVTVSS

Legend:
[1] = biological target: human activated protein C (APC) (human) (UniProt P04070); test: ELISA
[2] = biological target: human activated protein C (APC) (human) (UniProt P04070); test: ELISA screen, APC-coated wells, OD450, n=2 [Continued]

| Binder | binding [1] | binding [2] |
| --- | --- | --- |
| B1 | binds | binds |
| B2 | binds | binds |
| B3 | binds | binds |
| B4 | binds | binds |
| B5 | binds | binds |
| B6 | binds | binds |
| B7 | binds | binds |
| B8 | binds | binds |
| B9 | binds | binds |
| B10 | binds | binds |
| B11 | binds | binds |
| B12 | binds | binds |
| B13 | binds | binds |
| B14 | binds | binds |
| B15 | binds | binds |
| B16 | binds | binds |

| Binder | binding [1] | binding [2] |
| --- | --- | --- |
| B17 | binds | binds |
| B18 | binds | binds |
| B19 | binds | binds |
| B20 | binds | binds |
| B21 | binds | binds |
| B22 | binds | binds |
| B23 | binds | binds |
| B24 | binds | binds |
| B25 | binds | binds |
| B26 | binds | binds |
| B27 | binds | binds |
| B28 | binds | binds |
| B29 | binds | binds |
| B30 | binds | binds |
| B31 | binds | binds |
